No constants are given. Whether binding was seen depends on the method and setting. In cells and extracts the contact can be indirect. Some entries that bind do so weakly or less than the wild type.
How the values were obtained:
STING-HA = STING-HA (UniProt Q86WV6); assay: co-IP; HEK293T transfected with VZV gE and STING-HA, MAVS-MYC or MAVSΔTM-MYC plasmids for 24 h; lysate precipitated by the tag (anti-MYC for MAVS); blots with anti-gE and anti-HA or anti-MYC
MAVS-MYC = MAVS-MYC (UniProt Q7Z434); assay: as above

The chains behind the UniProt entries cited, without tags or fusion partners. Residues count along the entry.
UniProt Q86WV6: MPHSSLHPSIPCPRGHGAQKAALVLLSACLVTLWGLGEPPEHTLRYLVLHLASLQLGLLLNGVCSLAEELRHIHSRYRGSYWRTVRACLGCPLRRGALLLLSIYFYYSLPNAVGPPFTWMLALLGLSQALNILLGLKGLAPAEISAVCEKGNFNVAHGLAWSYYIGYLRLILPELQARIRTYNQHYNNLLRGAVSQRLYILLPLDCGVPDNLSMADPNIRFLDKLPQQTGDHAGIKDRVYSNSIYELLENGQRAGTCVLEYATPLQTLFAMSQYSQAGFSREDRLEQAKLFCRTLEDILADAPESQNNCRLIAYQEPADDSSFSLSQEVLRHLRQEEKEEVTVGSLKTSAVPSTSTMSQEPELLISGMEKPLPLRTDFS
UniProt Q7Z434: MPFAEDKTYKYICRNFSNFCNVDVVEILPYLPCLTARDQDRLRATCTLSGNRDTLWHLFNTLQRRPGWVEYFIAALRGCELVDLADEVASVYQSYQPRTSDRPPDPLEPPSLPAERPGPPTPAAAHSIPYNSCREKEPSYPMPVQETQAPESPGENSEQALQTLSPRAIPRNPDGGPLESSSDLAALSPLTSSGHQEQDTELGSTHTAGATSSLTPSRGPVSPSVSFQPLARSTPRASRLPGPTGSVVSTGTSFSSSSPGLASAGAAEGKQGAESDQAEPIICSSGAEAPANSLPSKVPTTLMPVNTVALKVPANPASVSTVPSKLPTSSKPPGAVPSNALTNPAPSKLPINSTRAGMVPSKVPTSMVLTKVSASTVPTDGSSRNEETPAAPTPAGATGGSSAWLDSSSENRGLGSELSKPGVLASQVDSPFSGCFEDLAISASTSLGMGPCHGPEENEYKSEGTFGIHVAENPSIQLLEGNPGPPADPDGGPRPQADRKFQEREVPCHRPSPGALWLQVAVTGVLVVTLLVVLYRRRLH
UniProt P09259, residues 31-623: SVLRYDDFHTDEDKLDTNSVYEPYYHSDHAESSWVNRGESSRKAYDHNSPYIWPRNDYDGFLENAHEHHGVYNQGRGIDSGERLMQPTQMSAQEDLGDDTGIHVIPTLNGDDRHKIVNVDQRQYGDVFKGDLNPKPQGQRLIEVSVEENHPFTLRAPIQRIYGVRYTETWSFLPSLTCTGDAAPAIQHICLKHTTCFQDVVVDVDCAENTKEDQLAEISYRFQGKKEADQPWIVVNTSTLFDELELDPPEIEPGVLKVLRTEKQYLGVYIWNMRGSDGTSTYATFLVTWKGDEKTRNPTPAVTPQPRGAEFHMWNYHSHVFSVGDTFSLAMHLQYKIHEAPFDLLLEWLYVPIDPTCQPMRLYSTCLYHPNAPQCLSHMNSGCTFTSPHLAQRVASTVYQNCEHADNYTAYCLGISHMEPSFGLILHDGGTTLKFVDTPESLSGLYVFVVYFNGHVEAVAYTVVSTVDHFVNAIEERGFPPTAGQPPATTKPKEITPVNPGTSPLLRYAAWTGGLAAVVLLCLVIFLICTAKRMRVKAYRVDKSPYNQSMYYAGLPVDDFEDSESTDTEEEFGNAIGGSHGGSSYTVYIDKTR

Varicella zoster virus glycoprotein E (from UniProt P09259 31-623)
binding (STING-HA): binds | binding (MAVS-MYC): binds
